These are yes or no findings as the source states them, for the method shown. Binding seen in cells or lysates may run through a third protein. Some entries that bind do so weakly or less than the wild type.
Target: RIPK1-HA (UniProt Q13546)
Test: co-IP

By UniProt entry, the sequences of proteins in these tests, tags left out.
UniProt Q13546: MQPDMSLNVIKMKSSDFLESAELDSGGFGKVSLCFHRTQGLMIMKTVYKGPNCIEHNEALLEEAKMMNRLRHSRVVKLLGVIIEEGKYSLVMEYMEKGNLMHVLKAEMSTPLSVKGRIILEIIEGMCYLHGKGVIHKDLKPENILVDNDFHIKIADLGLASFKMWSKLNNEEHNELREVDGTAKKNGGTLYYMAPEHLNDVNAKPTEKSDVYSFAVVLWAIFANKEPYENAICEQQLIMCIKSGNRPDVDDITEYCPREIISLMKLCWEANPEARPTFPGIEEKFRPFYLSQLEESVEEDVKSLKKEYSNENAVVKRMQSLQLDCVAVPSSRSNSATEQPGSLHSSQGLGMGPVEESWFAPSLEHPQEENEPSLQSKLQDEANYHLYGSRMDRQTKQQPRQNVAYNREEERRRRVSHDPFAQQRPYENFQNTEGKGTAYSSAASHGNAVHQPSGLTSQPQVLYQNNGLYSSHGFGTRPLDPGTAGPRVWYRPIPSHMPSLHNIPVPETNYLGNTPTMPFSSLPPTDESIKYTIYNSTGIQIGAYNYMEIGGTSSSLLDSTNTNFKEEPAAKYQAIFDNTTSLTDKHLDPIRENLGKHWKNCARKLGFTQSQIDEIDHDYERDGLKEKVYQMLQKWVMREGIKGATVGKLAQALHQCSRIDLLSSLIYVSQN
UniProt Q9Y572: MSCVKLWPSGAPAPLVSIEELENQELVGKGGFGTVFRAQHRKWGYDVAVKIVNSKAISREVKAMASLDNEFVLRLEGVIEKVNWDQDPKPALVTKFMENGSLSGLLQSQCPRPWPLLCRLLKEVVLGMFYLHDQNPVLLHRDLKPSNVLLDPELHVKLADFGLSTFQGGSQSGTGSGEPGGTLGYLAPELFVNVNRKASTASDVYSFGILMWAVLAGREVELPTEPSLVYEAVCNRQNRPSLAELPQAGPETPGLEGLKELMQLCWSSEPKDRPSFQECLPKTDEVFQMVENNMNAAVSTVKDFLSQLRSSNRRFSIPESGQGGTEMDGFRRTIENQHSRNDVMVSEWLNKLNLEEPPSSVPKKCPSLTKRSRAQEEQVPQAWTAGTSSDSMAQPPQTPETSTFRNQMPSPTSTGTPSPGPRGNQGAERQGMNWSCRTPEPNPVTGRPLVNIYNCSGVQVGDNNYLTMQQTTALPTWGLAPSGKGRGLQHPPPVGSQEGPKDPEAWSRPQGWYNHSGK

binding: binds
Substance: RIPK3-FLAG (from UniProt Q9Y572 1-518)

Source: article PMC3979729
